# Reference: the supplement of paper PMC8728848
# The other results are listed elsewhere or left out.
# B1: C7A (Sus scrofa) (peptide)
# chain: KILRGVCKKIMRTFLRRISKKILTGKK
# Tests used:
# Assay in all cases: glycan array binding signal (z-score within array); higher = stronger binding
# Settings in all cases: glycan notation: IUPAC condensed, linker removed; mutation: D21K
# [1] = target: Gal(a1-3)Gal(b1-4)GlcNAc
# Method in brief: (§1)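 The Consortium for Functional Glycomics database supplied 3228 glycan arrays, of which those lacking an available protein sequence were dropped. The binding signal, a within-array Z-score, was averaged across arrays of the same protein sequence and across linkers. Negative scores can be read as non-binding.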
# [2] = target: Gal(a1-3)Gal(b1-4)GlcNAc(b1-2)Man
# Method in brief: as §1
# [3] = target: Gal(a1-3)Gal(b1-4)GlcNAc(b1-2)Man(a1-3)[Gal(a1-3)Gal(b1-4)GlcNAc(b1-2)Man(a1-6)]Man(b1-4)GlcNAc(b1-4)GlcNAc
# Method in brief: as §1
# [4] = target: Gal(a1-3)Gal(b1-4)GlcNAc(b1-3)GalNAc
# Method in brief: as §1
# [5] = target: Gal(a1-3)Gal(b1-4)GlcNAc(b1-6)GalNAc
# Method in brief: as §1
# [6] = target: Gal(a1-3)Gal(b1-4)[Fuc(a1-3)]GlcNAc
# Method in brief: as §1
# [7] = target: Gal(a1-3)Gal(b1-4)[Fuc(a1-3)]GlcNAc(b1-2)Man(a1-3)[Gal(a1-3)Gal(b1-4)[Fuc(a1-3)]GlcNAc(b1-2)Man(a1-6)]Man(b1-4)GlcNAc(b1-4)GlcNAc
# Method in brief: as §1
# [8] = target: Gal(a1-3)GalNAc
# Method in brief: as §1
# [9] = target: Gal(a1-3)[Gal(a1-4)]Gal(b1-4)GlcNAc
# Method in brief: as §1
# [10] = target: Gal(a1-4)Gal(b1-3)GlcNAc(b1-2)Man(a1-3)[Gal(a1-4)Gal(b1-3)GlcNAc(b1-2)Man(a1-6)]Man(b1-4)GlcNAc(b1-4)GlcNAc
# Method in brief: as §1
# [11] = target: Gal(a1-4)Gal(b1-4)Glc
# Method in brief: as §1
# [12] = target: Gal(a1-4)Gal(b1-4)GlcNAc
# Method in brief: as §1
# [13] = target: Gal(a1-4)Gal(b1-4)GlcNAc(b1-2)Man(a1-3)[Gal(a1-4)Gal(b1-4)GlcNAc(b1-2)Man(a1-6)]Man(b1-4)GlcNAc(b1-4)GlcNAc
# Method in brief: as §1
# [14] = target: Gal(a1-4)Gal(b1-4)GlcNAc(b1-3)Gal(b1-4)Glc
# Method in brief: as §1
# [15] = target: Gal(a1-4)GlcNAc
# Method in brief: as §1
# [16] = target: Gal(a1-6)Glc
# Method in brief: as §1
# [17] = target: Gal(b1-2)Gal
# Method in brief: as §1
# [18] = target: Gal(b1-3)Gal
# Method in brief: as §1
# [19] = target: Gal(b1-3)Gal(b1-4)GlcNAc
# Method in brief: as §1
# [20] = target: Gal(b1-3)GalNAc
# Method in brief: as §1
# [21] = target: Gal(b1-3)GalNAc(a1-3)[Fuc(a1-2)]Gal(b1-4)Glc
# Method in brief: as §1
# [22] = target: Gal(b1-3)GalNAc(a1-3)[Fuc(a1-2)]Gal(b1-4)GlcNAc
# Method in brief: as §1
# [23] = target: Gal(b1-3)GalNAc(b1-3)Gal
# Method in brief: as §1
# [24] = target: Gal(b1-3)GalNAc(b1-3)Gal(a1-4)Gal(b1-4)Glc
# Method in brief: as §1
# [25] = target: Gal(b1-3)GalNAc(b1-4)Gal(b1-4)Glc
# Method in brief: as §1
# [26] = target: Gal(b1-3)GalNAc(b1-4)[Neu5Ac(a2-3)]Gal(b1-4)Glc
# Method in brief: as §1
# [27] = target: Gal(b1-3)GlcNAc
# Method in brief: as §1
# [28] = target: Gal(b1-3)GlcNAc(a1-3)Gal(b1-4)GlcNAc
# Method in brief: as §1
# [29] = target: Gal(b1-3)GlcNAc(a1-6)Gal(b1-4)GlcNAc
# Method in brief: as §1
# [30] = target: Gal(b1-3)GlcNAc(b1-2)Man
# Method in brief: as §1
# [31] = target: Gal(b1-3)GlcNAc(b1-2)Man(a1-3)[Gal(b1-3)GlcNAc(b1-2)Man(a1-6)]Man(b1-4)GlcNAc(b1-4)GlcNAc
# Method in brief: as §1
# [32] = target: Gal(b1-3)GlcNAc(b1-2)Man(a1-3)[Gal(b1-3)GlcNAc(b1-2)Man(a1-6)]Man(b1-4)GlcNAc(b1-4)[Fuc(a1-6)]GlcNAc
# Method in brief: as §1
# [33] = target: Gal(b1-3)GlcNAc(b1-2)Man(a1-3)[GlcNAc(b1-4)][Gal(b1-3)GlcNAc(b1-2)Man(a1-6)]Man(b1-4)GlcNAc(b1-4)GlcNAc
# Method in brief: as §1
# [34] = target: Gal(b1-3)GlcNAc(b1-2)[Gal(b1-3)GlcNAc(b1-6)]Man(a1-6)[Gal(b1-3)GlcNAc(b1-2)Man(a1-3)]Man(b1-4)GlcNAc(b1-4)GlcNAc
# Method in brief: as §1
# [35] = target: Gal(b1-3)GlcNAc(b1-3)Gal(b1-3)GlcNAc
# Method in brief: as §1
# [36] = target: Gal(b1-3)GlcNAc(b1-3)Gal(b1-4)Glc
# Method in brief: as §1
# [37] = target: Gal(b1-3)GlcNAc(b1-3)Gal(b1-4)GlcNAc
# Method in brief: as §1
# [38] = target: Gal(b1-3)GlcNAc(b1-3)Gal(b1-4)GlcNAc(b1-2)Man(a1-3)[Gal(b1-3)GlcNAc(b1-3)Gal(b1-4)GlcNAc(b1-2)Man(a1-6)]Man(b1-4)GlcNAc(b1-4)GlcNAc
# Method in brief: as §1
# [39] = target: Gal(b1-3)GlcNAc(b1-3)Gal(b1-4)GlcNAc(b1-2)[Gal(b1-3)GlcNAc(b1-3)Gal(b1-4)GlcNAc(b1-6)]Man(a1-6)[Gal(b1-3)GlcNAc(b1-3)Gal(b1-4)GlcNAc(b1-2)Man(a1-3)]Man(b1-4)GlcNAc(b1-4)[Fuc(a1-6)]GlcNAc
# Method in brief: as §1
# [40] = target: Gal(b1-3)GlcNAc(b1-3)Gal(b1-4)GlcNAc(b1-3)Gal(b1-4)GlcNAc(b1-2)[Gal(b1-3)GlcNAc(b1-3)Gal(b1-4)GlcNAc(b1-3)Gal(b1-4)GlcNAc(b1-6)]Man(a1-6)[Gal(b1-3)GlcNAc(b1-3)Gal(b1-4)GlcNAc(b1-3)Gal(b1-4)GlcNAc(b1-2)Man(a1-3)]Man(b1-4)GlcNAc(b1-4)[Fuc(a1-6)]GlcNAc
# Method in brief: as §1
# [41] = target: Gal(b1-3)GlcNAc(b1-3)Gal(b1-4)GlcNAc(b1-6)[Gal(b1-3)GlcNAc(b1-3)]Gal(b1-4)Glc
# Method in brief: as §1
# [42] = target: Gal(b1-3)GlcNAc(b1-3)Gal(b1-4)[Fuc(a1-3)]GlcNAc
# Method in brief: as §1
# [43] = target: Gal(b1-3)GlcNAc(b1-3)Gal(b1-4)[Fuc(a1-3)]GlcNAc(b1-6)[Gal(b1-3)GlcNAc(b1-3)]Gal(b1-4)Glc
# Method in brief: as §1
# [44] = target: Gal(b1-3)GlcNAc(b1-3)GalNAc
# Method in brief: as §1
# [45] = target: Gal(b1-3)GlcNAc(b1-6)Gal(b1-4)GlcNAc
# Method in brief: as §1
# [46] = target: Gal(b1-3)GlcNAc(b1-6)GalNAc
# Method in brief: as §1
# [47] = target: Gal(b1-3)GlcNAc(b1-6)[Gal(b1-3)]GalNAc
# Method in brief: as §1
# [48] = target: Gal(b1-3)GlcNAc6S
# Method in brief: as §1
# [49] = target: Gal(b1-3)[Fuc(a1-4)]GlcNAc
# Method in brief: as §1
# [50] = target: Gal(b1-3)[Fuc(a1-4)]GlcNAc(b1-2)Man
# Method in brief: as §1
# [51] = target: Gal(b1-3)[Fuc(a1-4)]GlcNAc(b1-2)Man(a1-3)[Gal(b1-3)[Fuc(a1-4)]GlcNAc(b1-2)Man(a1-6)]Man(b1-4)GlcNAc(b1-4)[Fuc(a1-6)]GlcNAc
# Method in brief: as §1
# [52] = target: Gal(b1-3)[Fuc(a1-4)]GlcNAc(b1-3)Gal(b1-3)[Fuc(a1-4)]GlcNAc
# Method in brief: as §1
binder,measurement,setting,value
B1,glycan array binding signal (z-score),[1],-0.056
same,glycan array binding signal (z-score),[2],-0.255
same,glycan array binding signal (z-score),[3],1.02
same,glycan array binding signal (z-score),[4],1.03
same,glycan array binding signal (z-score),[5],0.289
same,glycan array binding signal (z-score),[6],-0.503
same,glycan array binding signal (z-score),[7],1.54
same,glycan array binding signal (z-score),[8],-1.27
same,glycan array binding signal (z-score),[9],0.818
same,glycan array binding signal (z-score),[10],0.908
same,glycan array binding signal (z-score),[11],-0.862
same,glycan array binding signal (z-score),[12],-0.591
same,glycan array binding signal (z-score),[13],0.22
same,glycan array binding signal (z-score),[14],0.658
same,glycan array binding signal (z-score),[15],-1.02
same,glycan array binding signal (z-score),[16],-1.76
same,glycan array binding signal (z-score),[17],-1.46
same,glycan array binding signal (z-score),[18],0.526
same,glycan array binding signal (z-score),[19],0.38
same,glycan array binding signal (z-score),[20],-0.394
same,glycan array binding signal (z-score),[21],-0.962
same,glycan array binding signal (z-score),[22],1.21
same,glycan array binding signal (z-score),[23],-1.18
same,glycan array binding signal (z-score),[24],2.25
same,glycan array binding signal (z-score),[25],1.03
same,glycan array binding signal (z-score),[26],0.649
same,glycan array binding signal (z-score),[27],-1.43
same,glycan array binding signal (z-score),[28],0.316
same,glycan array binding signal (z-score),[29],0.584
same,glycan array binding signal (z-score),[30],0.724
same,glycan array binding signal (z-score),[31],-0.232
same,glycan array binding signal (z-score),[32],0.303
same,glycan array binding signal (z-score),[33],0.213
same,glycan array binding signal (z-score),[34],-0.557
same,glycan array binding signal (z-score),[35],-0.8
same,glycan array binding signal (z-score),[36],-0.894
same,glycan array binding signal (z-score),[37],-1.13
same,glycan array binding signal (z-score),[38],-2.32
same,glycan array binding signal (z-score),[39],1.29
same,glycan array binding signal (z-score),[40],0.352
same,glycan array binding signal (z-score),[41],0.463
same,glycan array binding signal (z-score),[42],0.37
same,glycan array binding signal (z-score),[43],0.301
same,glycan array binding signal (z-score),[44],-0.918
same,glycan array binding signal (z-score),[45],0.668
same,glycan array binding signal (z-score),[46],-1.14
same,glycan array binding signal (z-score),[47],-0.196
same,glycan array binding signal (z-score),[48],1.73
same,glycan array binding signal (z-score),[49],-0.073
same,glycan array binding signal (z-score),[50],0.249
same,glycan array binding signal (z-score),[51],-1.63
same,glycan array binding signal (z-score),[52],-0.712

# Three entries picked at random from the list so far, as already listed:
binder,measurement,setting,value
B1,glycan array binding signal (z-score),[43],0.301
same,glycan array binding signal (z-score),[42],0.37
same,glycan array binding signal (z-score),[32],0.303
